Results taken from publication doi:10.1101/2020.06.16.155333.

Key:
Polo.Flag (Drosophila) = target: T1, Polo.Flag (Drosophila) (UniProt P52304); assay: co-IP
T1 sequence: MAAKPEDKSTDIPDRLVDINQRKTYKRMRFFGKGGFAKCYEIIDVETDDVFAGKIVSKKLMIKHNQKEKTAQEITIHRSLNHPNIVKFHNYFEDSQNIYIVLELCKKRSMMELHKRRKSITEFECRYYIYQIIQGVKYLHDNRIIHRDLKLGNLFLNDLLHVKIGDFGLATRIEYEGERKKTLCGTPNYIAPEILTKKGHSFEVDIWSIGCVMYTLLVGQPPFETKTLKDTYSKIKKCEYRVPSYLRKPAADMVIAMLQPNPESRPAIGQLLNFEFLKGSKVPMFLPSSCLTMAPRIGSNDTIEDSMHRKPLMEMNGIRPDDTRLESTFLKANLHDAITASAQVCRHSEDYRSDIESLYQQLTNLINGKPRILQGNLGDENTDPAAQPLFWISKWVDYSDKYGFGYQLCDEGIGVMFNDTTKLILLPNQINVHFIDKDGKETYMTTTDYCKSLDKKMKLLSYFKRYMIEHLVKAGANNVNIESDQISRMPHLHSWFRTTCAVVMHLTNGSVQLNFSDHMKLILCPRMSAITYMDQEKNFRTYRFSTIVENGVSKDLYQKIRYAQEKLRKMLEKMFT

Bsd.Myc (Drosophila) = assay: co-IP

Row | Molecule | binding (Polo.Flag (Drosophila)) | binding (Bsd.Myc (Drosophila))
1 | Bsd.Myc (Drosophila) | binds | 
2 | Jaguar (Jar), Flag-HA C-terminal fusion (FMO12286) (protein, UniProt Q01989 1-1253) MLEDTQLVWVRDAAEGYIQGRITEIGAKEFEVTPTDRKYPKRTCHFDDIHSSCDGPQDHDDNCELMLLNEATFLDNLKTRYYKDKIYTYVANILIAVNPYREIKELYAPDTIKKYNGRSLGELPPHVFAIADKAIRDMRVYKLSQSIIVSGESGAGKTESTKYLLKYLCYSHDSAGPIETKILDANPVLEAFGNAKTTRNNNSSRFGKFIEVHYDAKCQVVGGYISHYLLEKSRICTQSAEERNYHVFYMLLAGAPQQLRDKLSLGKPDDYRYLSGCTQYFANAKTEQLIPGSQKSKNHQQKGPLKDPIIDDYQHFHNLDKALGRLGLSDTEKLGIYSLVAAVLHLGNIAFEEIPDDVRGGCQVSEASEQSLTITSGLLGVDQTELRTALVSRVMQSKGGGFKGTVIMVPLKIYEASNARDALAKAIYSRLFDRIVGLINQSIPFQASNFYIGVLDIAGFEYFTVNSFEQFCINYCNEKLQKFFNDNILKNEQELYKREGLNVPEITFTDNQDIIELIEAKSNGIFTLLDEESKLPKPSYSHFTAEVHKSWANHYRLGLPRSSRLKAHRTLRDEEGFLVRHFAGAVCYNTEQFIEKNNDALHASLEGLVQECDNPLLQTLFPSGSSTSVRGKLNFISVGSKFKTQLGELMEKLEQNGTNFIRCIKPNSKMIDRQFEGSLALAQLKCSGTISVLELMEHGYPSRVLFADLYSMYKSVLPPELVSLPARTFCEAMFQSLNLSAKDFKFGITKVFFRPGKFVEFDRIMRSDPENMLAIVAKVKKWLIRSRWVKSALGALCVIKLRNRIIYRNKCVLIAQRIARGFLARKQHRPRYQGIGKINKIRTNTLKTIEIASGLKMGREEIISGVNDIYRQIDDAIKKIKMNPRITQREMDSMYTVVMANMNKLTVDLNTKLKEQQQAEEQERLRKIQEALEAERAAKEAEEQRQREEIENKRLKAEMETRRKAAEAQRLRQEEEDRRAALALQEQLEKEAKDDAKYRQQLEQERRDHELALRLANESNGQVEDSPPVIRNGVNDASPMGPNKLIRSENVRAQQQALGKQKYDLSKWKYSELRDAINTSCDIELLEACRQEFHRRLKVYHAWKAKNRKRTTMDENERAPRSVMEAAFKQPPLVQPIQEIVTAQHRYFRIPFMRANAPDNTKRGLWYAHFDGQWIARQMELHADKPPILLVAGTDDMQMCELSLEETGLTRKRGAEILEHEFNREWERNGGKAYKNLGAAKPNGPAAAMQKQQ |  | binds weakly
3 | Yp3, Flag-HA C-terminal fusion (FMO11010) (protein, UniProt P06607 20-420) SKDASNDRLKPTKWLTATELENVPSLNDITWERLENQPLEQGAKVIEKIYHVGQIKHDLTPSFVPSPSNVPVWIIKSNGQKVECKLNNYVETAKAQPGFGEDEVTIVLTGLPKTSPAQQKAMRRLIQAYVQKYNLQQLQKNAQEQQQQLKSSDYDYTSSEEAADQWKSAKAASGDLIIIDLGSTLTNFKRYAMLDVLNTGAMIGQTLIDLTNKGVPQEIIHLIGQGISAHVAGAAGNKYTAQTGHKLRRITGLDPAKVLSKRPQILGGLSRGDADFVDAIHTSTFAMGTPIRCGDVDFYPNGPSTGVPGSENVIEAVARATRYFAESVRPGSERNFPAVPANSLKQYKEQDGFGKRAYMGLQIDYDLRGDYILEVNAKSPFGQRSPAHKQAAYHGMHHAQN |  | binds weakly

No constants are given. Whether binding was seen depends on the method and setting. Binding seen in cells or lysates may run through a third protein. Binding can be weak; no strength is given. Sequences can lack the tags named with a protein.
